# Assay results taken from the supplement of paper PMC12819154, “High-throughput peptide-centric local stability assay extends protein–ligand identification to membrane proteins, tissues and bacteria” (Nature Structural & Molecular Biology, 2025).
# Protein sequences, listed by entry. Tags and fused reporters are not part of them. Lines headed by an entry give the natural chain unless they say otherwise; changes in a name come on top.
# UniProt Q9Y421: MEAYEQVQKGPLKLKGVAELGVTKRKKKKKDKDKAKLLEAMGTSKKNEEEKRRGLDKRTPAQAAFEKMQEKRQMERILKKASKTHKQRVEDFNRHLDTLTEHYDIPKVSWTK
# UniProt Q9Y5Q8: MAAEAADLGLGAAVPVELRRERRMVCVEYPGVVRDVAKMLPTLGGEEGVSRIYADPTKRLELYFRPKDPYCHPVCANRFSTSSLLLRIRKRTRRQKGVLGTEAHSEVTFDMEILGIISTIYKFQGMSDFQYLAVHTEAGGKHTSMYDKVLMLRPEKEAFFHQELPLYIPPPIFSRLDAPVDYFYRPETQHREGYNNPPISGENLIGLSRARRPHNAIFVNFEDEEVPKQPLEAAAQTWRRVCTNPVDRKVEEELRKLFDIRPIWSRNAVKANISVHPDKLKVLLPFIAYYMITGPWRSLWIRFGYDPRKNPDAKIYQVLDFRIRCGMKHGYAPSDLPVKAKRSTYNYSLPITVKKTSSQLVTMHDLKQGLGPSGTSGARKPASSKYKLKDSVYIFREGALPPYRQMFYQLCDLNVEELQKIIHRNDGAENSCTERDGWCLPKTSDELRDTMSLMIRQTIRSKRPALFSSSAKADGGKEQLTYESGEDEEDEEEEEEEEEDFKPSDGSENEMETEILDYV
# UniProt Q9Y608: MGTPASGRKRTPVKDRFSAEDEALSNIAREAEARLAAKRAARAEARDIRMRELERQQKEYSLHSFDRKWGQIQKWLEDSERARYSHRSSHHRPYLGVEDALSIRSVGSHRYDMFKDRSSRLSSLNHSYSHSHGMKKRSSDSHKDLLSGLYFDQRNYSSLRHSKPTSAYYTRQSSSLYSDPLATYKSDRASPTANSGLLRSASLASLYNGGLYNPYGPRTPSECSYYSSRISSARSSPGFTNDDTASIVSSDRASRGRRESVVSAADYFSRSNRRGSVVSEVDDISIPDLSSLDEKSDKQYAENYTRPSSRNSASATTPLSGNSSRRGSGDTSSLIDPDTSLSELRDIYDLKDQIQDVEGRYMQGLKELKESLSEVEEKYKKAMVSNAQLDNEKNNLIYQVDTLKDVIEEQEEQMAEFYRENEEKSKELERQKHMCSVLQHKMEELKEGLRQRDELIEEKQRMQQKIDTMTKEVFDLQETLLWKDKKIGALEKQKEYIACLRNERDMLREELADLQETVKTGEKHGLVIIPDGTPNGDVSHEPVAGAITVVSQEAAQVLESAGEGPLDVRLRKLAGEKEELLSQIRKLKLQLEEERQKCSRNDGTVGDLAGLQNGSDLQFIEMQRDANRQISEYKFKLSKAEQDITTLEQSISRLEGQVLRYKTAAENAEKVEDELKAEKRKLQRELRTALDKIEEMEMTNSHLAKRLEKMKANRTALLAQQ
# UniProt Q9Y2B5: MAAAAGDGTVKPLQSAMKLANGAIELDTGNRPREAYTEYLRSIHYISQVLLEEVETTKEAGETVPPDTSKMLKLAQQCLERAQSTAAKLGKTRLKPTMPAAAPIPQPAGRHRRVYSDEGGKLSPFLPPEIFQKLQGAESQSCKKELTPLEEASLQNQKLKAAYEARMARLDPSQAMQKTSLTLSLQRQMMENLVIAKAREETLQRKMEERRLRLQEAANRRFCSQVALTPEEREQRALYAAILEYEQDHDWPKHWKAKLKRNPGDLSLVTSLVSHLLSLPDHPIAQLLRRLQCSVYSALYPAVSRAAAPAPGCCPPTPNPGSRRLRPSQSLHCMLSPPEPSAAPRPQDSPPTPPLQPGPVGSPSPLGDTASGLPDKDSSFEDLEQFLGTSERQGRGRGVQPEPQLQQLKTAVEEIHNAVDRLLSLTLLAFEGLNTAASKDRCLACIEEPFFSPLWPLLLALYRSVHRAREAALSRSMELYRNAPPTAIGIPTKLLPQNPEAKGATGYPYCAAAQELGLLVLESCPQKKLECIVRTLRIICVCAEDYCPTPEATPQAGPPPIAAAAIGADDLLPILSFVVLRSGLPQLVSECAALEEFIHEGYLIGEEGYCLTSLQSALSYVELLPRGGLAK
# UniProt Q9Y3B9: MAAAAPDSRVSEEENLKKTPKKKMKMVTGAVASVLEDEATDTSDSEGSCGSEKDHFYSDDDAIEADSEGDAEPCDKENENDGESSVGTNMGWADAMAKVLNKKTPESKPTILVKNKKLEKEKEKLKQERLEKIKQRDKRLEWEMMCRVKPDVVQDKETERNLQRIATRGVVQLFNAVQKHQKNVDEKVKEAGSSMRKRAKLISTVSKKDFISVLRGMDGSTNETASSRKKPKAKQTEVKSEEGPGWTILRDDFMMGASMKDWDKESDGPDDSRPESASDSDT
# UniProt Q9Y3C6: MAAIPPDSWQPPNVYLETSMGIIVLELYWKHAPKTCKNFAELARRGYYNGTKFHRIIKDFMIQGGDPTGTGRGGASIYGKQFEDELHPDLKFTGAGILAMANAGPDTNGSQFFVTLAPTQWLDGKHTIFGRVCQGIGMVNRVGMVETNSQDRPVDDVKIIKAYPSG
# UniProt Q9Y5L2: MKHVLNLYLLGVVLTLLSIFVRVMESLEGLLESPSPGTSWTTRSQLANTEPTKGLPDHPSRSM
# UniProt Q9Y3D6: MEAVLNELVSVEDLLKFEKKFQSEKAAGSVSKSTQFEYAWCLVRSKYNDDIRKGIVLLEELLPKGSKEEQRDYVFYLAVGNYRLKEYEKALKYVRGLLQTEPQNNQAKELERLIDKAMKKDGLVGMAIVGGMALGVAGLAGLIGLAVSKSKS
# UniProt Q9Y6B6: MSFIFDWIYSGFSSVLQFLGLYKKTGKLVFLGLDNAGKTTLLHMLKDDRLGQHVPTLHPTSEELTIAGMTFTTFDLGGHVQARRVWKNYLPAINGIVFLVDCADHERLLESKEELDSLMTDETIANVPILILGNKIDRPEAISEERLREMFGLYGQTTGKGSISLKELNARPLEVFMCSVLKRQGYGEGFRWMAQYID
# UniProt Q9Y613: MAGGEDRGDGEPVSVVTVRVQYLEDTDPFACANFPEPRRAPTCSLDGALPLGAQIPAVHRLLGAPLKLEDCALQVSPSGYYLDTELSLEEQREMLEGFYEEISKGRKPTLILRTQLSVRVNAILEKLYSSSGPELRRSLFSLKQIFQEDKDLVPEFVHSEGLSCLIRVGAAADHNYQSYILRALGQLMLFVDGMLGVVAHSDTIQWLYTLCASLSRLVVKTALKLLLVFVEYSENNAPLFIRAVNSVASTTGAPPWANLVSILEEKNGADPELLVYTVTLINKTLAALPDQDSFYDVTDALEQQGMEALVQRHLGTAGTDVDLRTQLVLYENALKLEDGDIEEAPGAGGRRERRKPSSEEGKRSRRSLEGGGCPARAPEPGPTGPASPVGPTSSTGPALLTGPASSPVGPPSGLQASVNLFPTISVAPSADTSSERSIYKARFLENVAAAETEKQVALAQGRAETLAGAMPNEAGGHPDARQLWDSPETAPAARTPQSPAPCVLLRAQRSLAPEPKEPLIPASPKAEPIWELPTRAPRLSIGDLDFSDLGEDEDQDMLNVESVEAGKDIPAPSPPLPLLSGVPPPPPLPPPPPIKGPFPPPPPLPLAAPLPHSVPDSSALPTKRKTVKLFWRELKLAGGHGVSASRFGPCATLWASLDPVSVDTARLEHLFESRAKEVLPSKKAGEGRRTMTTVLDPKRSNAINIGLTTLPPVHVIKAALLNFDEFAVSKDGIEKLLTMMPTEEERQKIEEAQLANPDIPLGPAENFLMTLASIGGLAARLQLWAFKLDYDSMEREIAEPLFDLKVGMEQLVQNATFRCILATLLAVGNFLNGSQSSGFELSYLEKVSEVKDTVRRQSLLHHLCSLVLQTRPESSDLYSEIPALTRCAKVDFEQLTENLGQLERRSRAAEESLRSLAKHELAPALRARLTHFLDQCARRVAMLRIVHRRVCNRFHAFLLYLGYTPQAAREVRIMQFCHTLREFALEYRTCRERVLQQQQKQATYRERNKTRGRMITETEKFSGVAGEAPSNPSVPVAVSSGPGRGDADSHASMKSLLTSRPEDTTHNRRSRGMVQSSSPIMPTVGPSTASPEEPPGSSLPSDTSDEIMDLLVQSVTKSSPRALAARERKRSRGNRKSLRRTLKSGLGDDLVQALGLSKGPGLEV
# UniProt Q9Y575: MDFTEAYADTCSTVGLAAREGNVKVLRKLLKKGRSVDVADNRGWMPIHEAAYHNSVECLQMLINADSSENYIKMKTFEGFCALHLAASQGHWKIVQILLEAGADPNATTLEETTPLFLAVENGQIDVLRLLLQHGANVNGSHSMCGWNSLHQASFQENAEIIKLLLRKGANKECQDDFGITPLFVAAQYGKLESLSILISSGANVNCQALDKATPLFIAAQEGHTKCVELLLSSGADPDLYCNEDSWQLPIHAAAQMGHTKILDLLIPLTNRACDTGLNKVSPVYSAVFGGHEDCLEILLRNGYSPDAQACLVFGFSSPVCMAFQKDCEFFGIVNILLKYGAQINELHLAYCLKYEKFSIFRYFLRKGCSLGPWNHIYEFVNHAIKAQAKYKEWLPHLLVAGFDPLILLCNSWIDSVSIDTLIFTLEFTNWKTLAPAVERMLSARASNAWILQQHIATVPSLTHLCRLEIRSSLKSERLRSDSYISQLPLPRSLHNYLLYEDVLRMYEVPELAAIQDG
# UniProt Q9Y2E4: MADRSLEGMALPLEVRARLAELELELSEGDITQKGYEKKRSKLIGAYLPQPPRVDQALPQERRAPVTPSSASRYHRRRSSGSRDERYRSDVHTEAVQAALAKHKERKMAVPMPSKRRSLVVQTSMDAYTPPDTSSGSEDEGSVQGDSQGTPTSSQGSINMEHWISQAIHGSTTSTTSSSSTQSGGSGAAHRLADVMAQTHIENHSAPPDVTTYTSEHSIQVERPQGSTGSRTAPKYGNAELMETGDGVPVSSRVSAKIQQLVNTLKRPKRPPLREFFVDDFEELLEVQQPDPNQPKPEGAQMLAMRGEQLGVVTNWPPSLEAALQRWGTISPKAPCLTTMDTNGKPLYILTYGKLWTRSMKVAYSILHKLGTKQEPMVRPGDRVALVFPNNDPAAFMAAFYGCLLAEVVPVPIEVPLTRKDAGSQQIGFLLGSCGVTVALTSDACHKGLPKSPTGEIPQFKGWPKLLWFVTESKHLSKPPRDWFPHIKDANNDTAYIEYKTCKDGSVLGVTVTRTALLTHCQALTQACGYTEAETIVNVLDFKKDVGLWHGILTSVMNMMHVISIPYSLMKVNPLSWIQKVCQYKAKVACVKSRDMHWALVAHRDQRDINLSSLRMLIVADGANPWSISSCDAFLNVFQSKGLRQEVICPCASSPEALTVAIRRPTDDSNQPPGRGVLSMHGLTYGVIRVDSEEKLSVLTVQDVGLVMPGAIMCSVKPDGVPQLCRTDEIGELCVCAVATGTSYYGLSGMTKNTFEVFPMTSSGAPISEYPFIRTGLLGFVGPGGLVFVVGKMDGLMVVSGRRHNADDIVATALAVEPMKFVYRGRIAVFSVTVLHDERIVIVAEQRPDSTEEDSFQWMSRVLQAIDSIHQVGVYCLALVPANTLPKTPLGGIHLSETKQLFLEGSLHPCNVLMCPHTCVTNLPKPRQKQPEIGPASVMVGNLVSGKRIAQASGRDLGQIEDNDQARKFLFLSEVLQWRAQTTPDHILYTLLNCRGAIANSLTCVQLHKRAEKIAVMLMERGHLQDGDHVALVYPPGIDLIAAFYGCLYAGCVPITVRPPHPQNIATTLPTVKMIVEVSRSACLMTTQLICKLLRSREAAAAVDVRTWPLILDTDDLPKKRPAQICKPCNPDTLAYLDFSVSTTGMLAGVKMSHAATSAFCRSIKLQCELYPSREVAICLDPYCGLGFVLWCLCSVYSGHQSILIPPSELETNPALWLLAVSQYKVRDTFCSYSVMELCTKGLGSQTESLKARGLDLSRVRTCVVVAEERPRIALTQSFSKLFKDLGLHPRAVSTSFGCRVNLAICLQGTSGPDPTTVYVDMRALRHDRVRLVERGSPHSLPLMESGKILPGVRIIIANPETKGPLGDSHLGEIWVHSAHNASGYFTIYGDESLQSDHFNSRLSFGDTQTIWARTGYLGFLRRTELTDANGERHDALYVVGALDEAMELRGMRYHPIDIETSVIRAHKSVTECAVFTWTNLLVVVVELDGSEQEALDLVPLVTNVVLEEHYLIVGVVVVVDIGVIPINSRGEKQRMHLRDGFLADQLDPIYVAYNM
# UniProt Q9Y4P8: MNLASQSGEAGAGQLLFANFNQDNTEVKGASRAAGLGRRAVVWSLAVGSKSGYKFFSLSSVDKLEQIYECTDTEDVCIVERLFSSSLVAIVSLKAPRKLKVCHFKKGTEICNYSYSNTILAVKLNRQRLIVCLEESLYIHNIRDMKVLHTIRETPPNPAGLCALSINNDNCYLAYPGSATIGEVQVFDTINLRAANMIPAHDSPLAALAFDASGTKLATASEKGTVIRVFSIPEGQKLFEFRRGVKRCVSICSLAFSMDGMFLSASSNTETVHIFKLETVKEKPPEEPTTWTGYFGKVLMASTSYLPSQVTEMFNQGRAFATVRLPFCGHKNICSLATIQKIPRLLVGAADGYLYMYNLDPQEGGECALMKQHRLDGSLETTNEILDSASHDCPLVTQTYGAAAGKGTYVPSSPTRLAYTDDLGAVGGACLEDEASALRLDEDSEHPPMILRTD
# This is one part of the list. Small differences around the control level are noise.
# Compound: Cc1nc(Nc2ncc(C(=O)Nc3c(C)cccc3Cl)s2)cc(N2CCN(CCO)CC2)n1 [dasatinib]
# Assay: log2 fold change of tryptic peptide abundance, ligand vs vehicle (limited proteolysis) (log2 ratio); higher = more trypsin-susceptible (destabilized)
# Details: ligand concentration: 5 uM; sample: K562 cleared lysate
row,Target,log2 fold change
1,"TSSC4 (peptide sequence: GGLGNPATDR, peptide start residue: 241) (UniProt Q9Y5U2)",-0.221
2,"TLN2 (peptide sequence: KEEGTGTLKK, peptide start residue: 140) (UniProt Q9Y4G6)",-0.233
3,"UTP18 (peptide sequence: LEEDKPAVER, peptide start residue: 80) (UniProt Q9Y5J1)",-0.38
4,"FAM32A (peptide sequence: LLEAMGTSK, peptide start residue: 37) (UniProt Q9Y421)",-0.0738
5,"NOSIP (peptide sequence: DMVDPVTGDKLTDRDIIVLQR, peptide start residue: 258) (UniProt Q9Y314)",2.18
6,"ARFGEF1 (peptide sequence: CISQLELAQLIGTGVKPR, peptide start residue: 1050) (UniProt Q9Y6D6)",0.127
7,"GTF3C5 (peptide sequence: LKDSVYIFR, peptide start residue: 388) (UniProt Q9Y5Q8)",-0.148
8,"SALL2 (peptide sequence: QIHQMQMTEQICR, peptide start residue: 193) (UniProt Q9Y467)",0.39
9,"LRCH1 (peptide sequence: NVENFLEACRK, peptide start residue: 721) (UniProt Q9Y2L9)",0.57
10,"LRRFIP2 (peptide sequence: ESLSEVEEK, peptide start residue: 370) (UniProt Q9Y608)",0.111
11,"UniProt Q9Y2B5 (peptide sequence: QMMENLVIAK, peptide start residue: 188)",0.259
12,"LSM4 (peptide sequence: IPDEIIDMVKEEVVAK, peptide start residue: 71) (UniProt Q9Y4Z0)",-0.39
13,"RRP15 (peptide sequence: VKPDVVQDKETER, peptide start residue: 148) (UniProt Q9Y3B9)",0.114
14,"PPIL1 (peptide sequence: IIKDFMIQGGDPTGTGR, peptide start residue: 56) (UniProt Q9Y3C6)",-0.241
15,"ZNF652 (peptide sequence: MSKPHLHETEEQPYFR, peptide start residue: 67) (UniProt Q9Y2D9)",-0.0409
16,"YARS2 (peptide sequence: KANAIPDGPR, peptide start residue: 415) (UniProt Q9Y2Z4)",-0.332
17,"KLF13 (peptide sequence: EGPESRPEGAAVAATPTLPR, peptide start residue: 29) (UniProt Q9Y2Y9)",0.31
18,"PKP3 (peptide sequence: GAEGPEAER, peptide start residue: 32) (UniProt Q9Y446)",-0.301
19,"LUC7L2 (peptide sequence: VVAEKQEKR, peptide start residue: 231) (UniProt Q9Y383)",-0.41

# A second format for some results above.
row | Target | log2 fold change
2 | TLN2 (peptide sequence: KEEGTGTLKK, peptide start residue: 140) (UniProt Q9Y4G6) | -0.233
5 | NOSIP (peptide sequence: DMVDPVTGDKLTDRDIIVLQR, peptide start residue: 258) (UniProt Q9Y314) | 2.18
6 | ARFGEF1 (peptide sequence: CISQLELAQLIGTGVKPR, peptide start residue: 1050) (UniProt Q9Y6D6) | 0.127
7 | GTF3C5 (peptide sequence: LKDSVYIFR, peptide start residue: 388) (UniProt Q9Y5Q8) | -0.148
9 | LRCH1 (peptide sequence: NVENFLEACRK, peptide start residue: 721) (UniProt Q9Y2L9) | 0.57
10 | LRRFIP2 (peptide sequence: ESLSEVEEK, peptide start residue: 370) (UniProt Q9Y608) | 0.111
12 | LSM4 (peptide sequence: IPDEIIDMVKEEVVAK, peptide start residue: 71) (UniProt Q9Y4Z0) | -0.39
16 | YARS2 (peptide sequence: KANAIPDGPR, peptide start residue: 415) (UniProt Q9Y2Z4) | -0.332
18 | PKP3 (peptide sequence: GAEGPEAER, peptide start residue: 32) (UniProt Q9Y446) | -0.301

# Continued.

row,Target,log2 fold change
1,"STXBP5L (peptide sequence: HAHELMLK, peptide start residue: 1170) (UniProt Q9Y2K9)",0.0257
2,"UniProt Q9Y5L2 (peptide sequence: GLPDHPSR, peptide start residue: 54)",0.0648
3,"SNX11 (peptide sequence: STMTVSDAILR, peptide start residue: 143) (UniProt Q9Y5W9)",-0.118
4,"FIS1 (peptide sequence: SKYNDDIR, peptide start residue: 45) (UniProt Q9Y3D6)",-0.124
5,"SAR1B (peptide sequence: LVFLGLDNAGK, peptide start residue: 28) (UniProt Q9Y6B6)",-0.345
6,"FHOD1 (peptide sequence: FLENVAAAETEK, peptide start residue: 443) (UniProt Q9Y613)",-0.0563
7,"UniProt Q9Y2H1 (peptide sequence: SKDWVFLNYTYK, peptide start residue: 433)",0.821
8,"ASB3 (peptide sequence: SVDVADNR, peptide start residue: 35) (UniProt Q9Y575)",0.0725
9,"UniProt Q9Y3Y2 (peptide sequence: GALARPVLTK, peptide start residue: 204)",-0.734
10,"AP4B1 (peptide sequence: TSSFAASGPLIPEENKER, peptide start residue: 591) (UniProt Q9Y6B7)",0.183
11,"ZBTB1 (peptide sequence: YYVEEDVSIKK, peptide start residue: 372) (UniProt Q9Y2K1)",0.257
12,"UniProt Q9Y2E4 (peptide sequence: YHPIDIETSVIR, peptide start residue: 1469)",-0.484
13,"MEMO1 (peptide sequence: TPLYDLR, peptide start residue: 98) (UniProt Q9Y316)",-0.129
14,"WIPI2 (peptide sequence: GTYVPSSPTR, peptide start residue: 407) (UniProt Q9Y4P8)",-0.138
15,"SH3BP1 (peptide sequence: LLEIQADYHRR, peptide start residue: 230) (UniProt Q9Y3L3)",-0.304
16,"PRKAB1 (peptide sequence: FRAPPILPPHLLQVILNK, peptide start residue: 200) (UniProt Q9Y478)",0.17
17,"EXOSC1 (peptide sequence: HGYIFSSLAGCLMK, peptide start residue: 30) (UniProt Q9Y3B2)",0.0636
18,"PLEKHM1 (peptide sequence: SWISEDDFYRPSR, peptide start residue: 440) (UniProt Q9Y4G2)",-0.0471
